The supplement of paper PMC9233669
Variants at the floor of the assay are shown more often than the library holds them.

Experiments:
biotinyl-Trp-oxazolone = test: self-aminoacylation, catalytic enhancement (BWO) (fold over background); higher = more active; k-Seq, kA / k0A0; sequences stand for … in GGGAAUGGAUCCACAUCUACGAAUUC…UUCACUGCAGACUUGACGAAGCUG
How it was run: (§1)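 Working in 50 μL HEPES/NaCl/KCl/MgCl2/CaCl2 buffer with 5% acetonitrile at pH 6.9–7.0, mutagenized RNA pools (0.43 μM; 21-nt variable region) were reacted with 2–1250 μM of each biotinyl-aminoacyl-oxazolone for 90 minutes at room temperature. Streptavidin capture followed, with quantification by triplicate qPCR and Illumina sequencing. Catalytic enhancement is reported as median kA over the uncatalyzed rate, the low-activity peak of a bimodal Gaussian fit to the data.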

biotinyl-Phe-oxazolone = test: self-aminoacylation, catalytic enhancement (BFO) (fold over background); higher = more active; k-Seq, kA / k0A0; sequences stand for … in GGGAAUGGAUCCACAUCUACGAAUUC…UUCACUGCAGACUUGACGAAGCUG
How it was run: as §1

biotinyl-Ile-oxazolone = test: self-aminoacylation, catalytic enhancement (BIO) (fold over background); higher = more active; k-Seq, kA / k0A0; sequences stand for … in GGGAAUGGAUCCACAUCUACGAAUUC…UUCACUGCAGACUUGACGAAGCUG
How it was run: as §1

biotinyl-Val-oxazolone = test: self-aminoacylation, catalytic enhancement (BVO) (fold over background); higher = more active; k-Seq, kA / k0A0; sequences stand for … in GGGAAUGGAUCCACAUCUACGAAUUC…UUCACUGCAGACUUGACGAAGCUG
How it was run: as §1

biotinyl-Leu-oxazolone = test: self-aminoacylation, catalytic enhancement (BLO) (fold over background); higher = more active; k-Seq, kA / k0A0; sequences stand for … in GGGAAUGGAUCCACAUCUACGAAUUC…UUCACUGCAGACUUGACGAAGCUG
How it was run: as §1

biotinyl-Met-oxazolone = test: self-aminoacylation, catalytic enhancement (BMO) (fold over background); higher = more active; k-Seq, kA / k0A0; sequences stand for … in GGGAAUGGAUCCACAUCUACGAAUUC…UUCACUGCAGACUUGACGAAGCUG
How it was run: as §1

Row | Sequence | self-aminoacylation (biotinyl-Trp-oxazolone) | self-aminoacylation (biotinyl-Phe-oxazolone) | self-aminoacylation (biotinyl-Ile-oxazolone) | self-aminoacylation (biotinyl-Val-oxazolone) | self-aminoacylation (biotinyl-Leu-oxazolone) | self-aminoacylation (biotinyl-Met-oxazolone)
1 | CUACUUCAAACAAUCUGUGUG [Fam1A.1 aminoacylation ribozyme variant] | 0.98 | 1.38 | 1.25 | 1.04 | 1.48 | 1.28
2 | CUACUUCAAACAAUGGGUUUG [Fam1A.1 aminoacylation ribozyme variant] | 0.957 | 0.542 | 0.96 | 0.871 | 0.88 | 0.963
3 | CUACUUCAAACAAUUGGUCAG [Fam1A.1 aminoacylation ribozyme variant] | 0.783 | 0.976 | 0.824 | 0.858 | 0.759 | 0.701
4 | CUACUUCAAACAAUUGGUCCG [Fam1A.1 aminoacylation ribozyme variant] | 1.01 | 0.524 | 0.958 | 0.728 | 0.872 | 0.854
5 | CUACUUCAAACAAUUGGUCUG [Fam1A.1 aminoacylation ribozyme variant] | 1.06 | 1.55 | 0.866 | 0.816 | 0.76 | 0.77
6 | CUACUUCAAACACUGGGUCUG [Fam1A.1 aminoacylation ribozyme variant] | 0.566 | 0.827 | 0.862 | 1.05 | 1.06 | 0.785
7 | CUACUUCAAACAGUCGGUCGG [Fam1A.1 aminoacylation ribozyme variant] | 1.02 | 0.776 | 1.12 | 0.872 | 1.16 | 1.15
8 | CUACUUCAAACAGUCGGUCUG [Fam1A.1 aminoacylation ribozyme variant] | 0.603 | 0.746 | 0.787 | 0.789 | 0.805 | 0.794
9 | CUACUUCAAACCAUCUGUCUG [Fam1A.1 aminoacylation ribozyme variant] | 0.541 | 0.823 | 0.684 | 0.727 | 0.565 | 0.558
10 | CUACUUCAAACGACCGGUCUG [Fam1A.1 aminoacylation ribozyme variant] | 0.229 | 0.832 | 0.601 | 0.74 | 0.621 | 0.698
11 | CUACUUCAAACGAUCGGUUUG [Fam1A.1 aminoacylation ribozyme variant] | 1.24 | 0.963 | 0.856 | 1 | 0.845 | 0.741
12 | CUACUUCAAACGAUCUGUCUG [Fam1A.1 aminoacylation ribozyme variant] | 0.578 | 0.904 | 0.701 | 0.779 | 0.564 | 0.769
13 | CUACUUCAAACUCUCGGUCUG [Fam1A.1 aminoacylation ribozyme variant] | 1.14 | 0.697 | 1.21 | 1.29 | 1.02 | 1.01
14 | CUACUUCAAACUGUCGGUCUG [Fam1A.1 aminoacylation ribozyme variant] | 0.814 | 0.522 | 1.01 | 1.09 | 0.986 | 1.04
15 | CUACUUCAAAGAAUAGGUCUG [Fam1A.1 aminoacylation ribozyme variant] | 0.59 | 0.944 | 0.816 | 0.746 | 0.699 | 0.784
16 | CUACUUCAAAGAAUCGGGCUG [Fam1A.1 aminoacylation ribozyme variant] | 1.76 | 0.928 | 1.34 | 1.17 | 1.24 | 1.02
17 | CUACUUCAAAGAAUCGUUCUG [Fam1A.1 aminoacylation ribozyme variant] | 0.482 | 0.728 | 0.632 | 0.648 | 0.579 | 0.694
18 | CUACUUCAAAUAAUAGGUCUG [Fam1A.1 aminoacylation ribozyme variant] | 0.599 | 0.75 | 0.751 | 0.66 | 0.636 | 0.561
19 | CUACUUCAACCAACCGGUCUG [Fam1A.1 aminoacylation ribozyme variant] | 0.896 | 1.5 | 0.85 | 0.802 | 1.08 | 0.949
20 | CUACUUCAAUCAAUCGCUCUG [Fam1A.1 aminoacylation ribozyme variant] | 0.702 | 0.772 | 0.737 | 0.736 | 0.577 | 0.675
21 | CUACUUCAAUCAAUCUGUCUG [Fam1A.1 aminoacylation ribozyme variant] | 0.721 | 1.25 | 0.599 | 0.597 | 0.57 | 0.539
22 | CUACUUCAAUCAAUGGGUCUG [Fam1A.1 aminoacylation ribozyme variant] | 0.627 | 0.579 | 0.889 | 0.809 | 0.912 | 0.801
23 | CUACUUCAGACAAUAGGUCUG [Fam1A.1 aminoacylation ribozyme variant] | 0.478 | 1.08 | 0.676 | 0.791 | 0.75 | 0.662
24 | CUACUUCAUACAAUCAGUCUG [Fam1A.1 aminoacylation ribozyme variant] | 0.563 | 1.09 | 0.678 | 0.769 | 0.638 | 0.494
25 | CUACUUCAUACAAUCGGCCUG [Fam1A.1 aminoacylation ribozyme variant] | 1.18 | 0.744 | 1.24 | 1.19 | 1.22 | 0.87
